The source of these data is patent publication US5652097A, “In vitro test to evaluate the inhibition potency of angiotensin II antagonists on angiotensinogen” (priority 1994, dated 1997).

The assay has as its system expression of pOGH (ANG N-1498/+18) in Hep G-TW7 cells stimulated by AII. Description: Inhibition of AII-stimulated expression of pOGH (ANG N-1498/+18) in Hep G-TW7 cells, IR-hGH by RIA. Format: cell-based. The following applies: Homo sapiens, 24 h, read-out: effective dose for the inhibition of the AII-stimulated expression of pOGH (ANG N-1498/+18). How it is done: Hep G-TW7 cells were plated at a density of 1-2×10^5 cells/well in a. 6-well plate and incubated overnight in DMEM containing 1% depleted FBS (dFBS). Then cell growth was arrested by incubation in serum-free medium for 24 hours. Subsequently, various concentrations (10^-9 to 10^-5 mol/L) of Lorsatan™, Saralasin™ and CGP 42112A™ were added to the culture medium containing 1% dFBS in the presence of 10^-9 mol/L AII and incubated for 24 hours. At the end of the incubation period, media were collected and kept at -20° C. until assay.
Cells were incubated for up to 24 hours in the presence of AII (10-9mol/L) and various concentrations of Lorsatan™ (10^-9 to 10^-5 mol/L) or Saralasin™ (10^-9 to 10^-5 mol/L) or CGP 42112A™ (10^-9 to 10^-5 mol/L). Media harvested and assayed for the level of IR-hGH.
Hep G-TW7 cells were plated at a density of 1-2×10^5 cells/well in a 6-well plate and incubated overnight in DMEM containing 1% dFBS. Then cells growth was arrested by incubation in serum-free medium for 24 hours. […] At the end of the incubation period, media were collected and kept at -20° C. until assay.
Media were harvested and assayed for the level of IR-hGH.
The radioimmunoassay kit for hGH (RIA-hGH) was a gift from NIADDK, NIH, USA. […] NIAMDD-hGH-1 (AFP-4793 B) was used for both iodination and as a hormone standard.

With `CN[C@@H]1C[C@H]2O[C@@](C)([C@@H]1OC)n1c3ccccc3c3c4c(c5c6ccccc6n2c5c31)C(=O)NC4` [Staurosporine], the minimal effective concentration turned out to be 1e-07 µM.
